## Primary screen of a compound library

Chains of the proteins cited; added tags and fusions are not shown.
UniProt P9WPC5, whole entry: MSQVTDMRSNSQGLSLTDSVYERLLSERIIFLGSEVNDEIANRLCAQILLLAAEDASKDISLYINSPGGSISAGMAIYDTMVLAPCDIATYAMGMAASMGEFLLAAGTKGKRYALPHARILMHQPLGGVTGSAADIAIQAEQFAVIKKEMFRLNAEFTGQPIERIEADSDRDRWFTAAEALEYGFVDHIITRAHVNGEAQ
UniProt P9WPC3, whole entry partner: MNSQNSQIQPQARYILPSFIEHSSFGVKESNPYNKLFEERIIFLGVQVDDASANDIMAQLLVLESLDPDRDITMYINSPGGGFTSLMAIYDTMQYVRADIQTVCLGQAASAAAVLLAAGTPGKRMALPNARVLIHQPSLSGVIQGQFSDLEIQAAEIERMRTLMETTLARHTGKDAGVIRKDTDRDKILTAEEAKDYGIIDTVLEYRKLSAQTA
UniProt P9WFT3, whole entry: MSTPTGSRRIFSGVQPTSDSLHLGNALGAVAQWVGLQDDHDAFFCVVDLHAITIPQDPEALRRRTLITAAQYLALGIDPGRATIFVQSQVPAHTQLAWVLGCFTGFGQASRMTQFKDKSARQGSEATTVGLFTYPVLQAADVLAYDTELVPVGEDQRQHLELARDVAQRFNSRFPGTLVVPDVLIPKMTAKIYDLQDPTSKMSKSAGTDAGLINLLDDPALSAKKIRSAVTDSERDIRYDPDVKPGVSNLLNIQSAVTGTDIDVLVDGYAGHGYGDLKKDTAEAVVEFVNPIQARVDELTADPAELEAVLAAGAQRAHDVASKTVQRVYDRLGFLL
UniProt P9WNZ1, whole entry: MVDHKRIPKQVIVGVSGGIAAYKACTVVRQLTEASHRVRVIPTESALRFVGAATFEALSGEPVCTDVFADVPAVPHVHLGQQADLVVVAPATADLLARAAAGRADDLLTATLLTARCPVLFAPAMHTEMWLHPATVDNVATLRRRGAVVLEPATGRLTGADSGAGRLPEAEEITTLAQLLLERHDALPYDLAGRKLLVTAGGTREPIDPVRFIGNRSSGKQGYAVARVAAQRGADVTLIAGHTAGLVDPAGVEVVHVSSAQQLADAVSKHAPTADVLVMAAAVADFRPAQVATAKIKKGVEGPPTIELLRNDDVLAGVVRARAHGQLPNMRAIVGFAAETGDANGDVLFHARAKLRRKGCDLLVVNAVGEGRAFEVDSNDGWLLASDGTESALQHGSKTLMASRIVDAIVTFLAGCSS

ClpP1P2: 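Protease assay of ClpP1P2, read by the AMC dye that it sets free. Target: ClpP1P2, Mycobacterium tuberculosis (UniProt P9WPC5 and UniProt P9WPC3). Compounds at 50 µM. Higher reads as stronger inhibition, judged from the few compounds that gave an IC50. Most other retested compounds had strongly negative values. About 69,000 compounds were tested under these conditions; 0.015% (about 10) showed 50% or more at least once.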
Toxoplasma: 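Assay of Toxoplasma gondii numbers, read through their beta-galactosidase reporter with a colour substrate. Tested at 10 µM. The record gives no direction; the compounds picked for IC50 retests had high values, so higher reads as fewer parasites. About 67,000 compounds were tested under these conditions; 0.38% (about 260) showed 50% or more at least once.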
MtTrpRS: 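Enzyme assay of tryptophanyl-tRNA synthetase; the read-out is not stated. Target: Tryptophan-tRNA ligase, Mycobacterium tuberculosis (UniProt P9WFT3). Concentration: 10 µM. Direction is not recorded; retested compounds ran higher, which suggests that high means inhibition. About 65,000 compounds were tested under these conditions; 0.098% (about 64) showed 50% or more at least once.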
CoaBC: 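Coenzyme A biosynthesis protein CoaBC, Mycobacterium tuberculosis (UniProt P9WNZ1). Enzyme assay of CoaBC with a phosphate dye (Biomol Green) read at 650 nm. Compounds at 30 µM. Direction is inferred from only a few compounds that gave an IC50; most scored high, so higher reads as stronger inhibition. Most strong results did not repeat in a second test. Size under these conditions: about 67,000 compounds, about 40 of them at 50% or above in at least one test.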

Values are the deposited “Percent Effect”, in %. How 0% and 100% were set is not recorded. Most values in the screen are low, and negative values occur. This is an unselected part of the compounds tested.

CCCN1CCCn2nc(CNS(=O)(=O)c3cccc(F)c3)cc2C1 gave ClpP1P2: -16.94%; Toxoplasma: 7.451%; MtTrpRS: 1.356%; CoaBC: 5.076%.
CCc1noc(CN2CCCN(C(C)=O)CC2)n1 gave ClpP1P2: -22.25%; Toxoplasma: -0.8709%; MtTrpRS: -4.011%; CoaBC: 2.1%.
CNc1nc(C2CCCN2C(C)=O)nc2c1CN(C1CCCC1)CC2 (centres unmarked) gave ClpP1P2: -8.646%; Toxoplasma: 18.53%; CoaBC: 3.883%.
CC(C)N(C)Cc1cnc2n1CCN(Cc1cccc(F)c1)C2.O=C(O)C(F)(F)F.O=C(O)C(F)(F)F gave Toxoplasma: 7.461%.
CC(C)CCNC(=O)Cc1cnc(-n2cccc2)s1 gave ClpP1P2: -25.86%; Toxoplasma: -9.94%; MtTrpRS: 2.169%; CoaBC: 6.203%.
O=C(c1csc(-c2ccccn2)n1)N1CCCC1Cn1cccn1 (centres unmarked) gave ClpP1P2: -25.5%; Toxoplasma: -4.653%; MtTrpRS: -3.888%; CoaBC: 6.513%.
COc1cccc(C(=O)N2CCN(C(=O)CCCn3ccnc3)CC2)c1 gave ClpP1P2: 1.76%; Toxoplasma: -13.1%; MtTrpRS: 0.3096%.
CN(C)Cc1nc(C(C)(C)NC(=O)c2cccc3ccccc23)no1 gave ClpP1P2: -7.325%; Toxoplasma: -1.748%; MtTrpRS: -4.868%; CoaBC: -0.609%.
CCc1sc(C(=O)Nc2cnn(CC(=O)NC3CC3)c2)cc1C gave ClpP1P2: 7.04%; Toxoplasma: 3.717%; MtTrpRS: 5.811%; CoaBC: 0.6483%.
CN(C)CCN1CC(C(=O)N2CCC(c3cc(=O)[nH]cn3)CC2)CC1=O (centres unmarked) gave ClpP1P2: -16.31%; Toxoplasma: 5.155%; MtTrpRS: -1.183%; CoaBC: 3.137%.
Cc1nonc1CN(C)Cc1cnn(-c2ccc(F)cc2)c1 gave ClpP1P2: -17.66%; MtTrpRS: -4.008%; CoaBC: 9.501%.
CCN(CCS(=O)(=O)c1ccc(Cl)cc1)Cc1ccc(OC)c(OC)c1 gave ClpP1P2: 8.538%; Toxoplasma: 0.7955%; MtTrpRS: 3.039%; CoaBC: 3.891%.
CC(C)c1nnc2n1CCN(CC(=O)N1CCc3ccccc3C1)C2 gave ClpP1P2: 2.507%; Toxoplasma: -3.952%; MtTrpRS: 1.415%; CoaBC: 1.064%.
CS(=O)(=O)N1Cc2nc(C(=O)NCc3ccccc3)oc2C1 gave ClpP1P2: -3.752%; Toxoplasma: 0.4787%; MtTrpRS: -3.004%.
Cc1ccc(N2CCCN(C(=O)c3cccc4c3ccn4C)CC2)nn1 gave ClpP1P2: -8.501%; Toxoplasma: -52.62%; MtTrpRS: -2.189%; CoaBC: 4.12%.
CN1CCN(C2CCN(Cc3noc(-c4ccccc4)n3)CC2)C1=O gave ClpP1P2: -0.4529%; Toxoplasma: 2.843%; MtTrpRS: -4.115%; CoaBC: 4.615%.
COc1ccc(C(=O)Nc2ccccc2-c2ccc(=O)n(C)n2)cc1 gave ClpP1P2: -3.307%; Toxoplasma: 14.8%; MtTrpRS: 1.14%; CoaBC: 6.977%.
Cc1noc(C)c1C(=O)NCC(C)N1CCc2ccccc21 (centres unmarked) gave ClpP1P2: -6.678%; Toxoplasma: -1.903%; MtTrpRS: -0.3975%; CoaBC: -12.06%.
Cc1c(C)n(CC(O)CN2CCC(C)CC2)c2c(Cl)cccc12 (centres unmarked) gave ClpP1P2: 1.043%; Toxoplasma: 11.36%; MtTrpRS: -3.864%; CoaBC: -1.129%.

Repeated from the top, 2 entries:

* CCCN1CCCn2nc(CNS(=O)(=O)c3cccc(F)c3)cc2C1 | ClpP1P2: -16.94%; Toxoplasma: 7.451%; MtTrpRS: 1.356%; CoaBC: 5.076%
* CCc1noc(CN2CCCN(C(C)=O)CC2)n1 | ClpP1P2: -22.25%; Toxoplasma: -0.8709%; MtTrpRS: -4.011%; CoaBC: 2.1%

Source: ChEMBL document CHEMBL3988442, “University of Dundee, Small-Polar-MMV Screening Library” (2021).